Measured values reported in the supplement of paper PMC12823440, “Inhibitors supercharge kinase turnover through native proteolytic circuits” (Nature, 2025).
Where a name gives a salt, the structure may show the parent alone. Some of the results follow. The calls rarely recur for the same compound in another form.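 Kinases were expressed as nanoluciferase fusions in K562 cells and luminescence was read every 4 h between 2 and 18 h as percent of control, DMSO set to 100% and a positive control to 0%. A time point counts as decreased when the signal drops significantly (2 sigma). The hit call is the authors' own, does not follow from the count of time points alone, and its rule is not shown.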

By UniProt entry, the sequences of proteins in these tests, tags left out. Where a name states a change or a piece, a line headed by the entry shows the natural chain unless it says otherwise.
UniProt Q9BRS2: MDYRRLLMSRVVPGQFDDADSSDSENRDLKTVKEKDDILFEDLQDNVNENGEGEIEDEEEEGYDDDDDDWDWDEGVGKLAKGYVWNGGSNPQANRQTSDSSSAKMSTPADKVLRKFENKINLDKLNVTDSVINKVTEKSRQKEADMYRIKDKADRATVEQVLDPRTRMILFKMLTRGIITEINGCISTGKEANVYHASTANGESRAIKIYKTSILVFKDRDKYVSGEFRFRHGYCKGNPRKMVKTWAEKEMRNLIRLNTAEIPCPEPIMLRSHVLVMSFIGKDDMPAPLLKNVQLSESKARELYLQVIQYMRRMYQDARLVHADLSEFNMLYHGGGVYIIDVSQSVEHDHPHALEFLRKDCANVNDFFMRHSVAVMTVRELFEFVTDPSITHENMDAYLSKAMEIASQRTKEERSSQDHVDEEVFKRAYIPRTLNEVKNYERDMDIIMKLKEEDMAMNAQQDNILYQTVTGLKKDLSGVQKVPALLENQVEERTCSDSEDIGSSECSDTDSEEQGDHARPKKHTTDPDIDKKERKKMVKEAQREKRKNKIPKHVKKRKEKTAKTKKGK
UniProt Q13546: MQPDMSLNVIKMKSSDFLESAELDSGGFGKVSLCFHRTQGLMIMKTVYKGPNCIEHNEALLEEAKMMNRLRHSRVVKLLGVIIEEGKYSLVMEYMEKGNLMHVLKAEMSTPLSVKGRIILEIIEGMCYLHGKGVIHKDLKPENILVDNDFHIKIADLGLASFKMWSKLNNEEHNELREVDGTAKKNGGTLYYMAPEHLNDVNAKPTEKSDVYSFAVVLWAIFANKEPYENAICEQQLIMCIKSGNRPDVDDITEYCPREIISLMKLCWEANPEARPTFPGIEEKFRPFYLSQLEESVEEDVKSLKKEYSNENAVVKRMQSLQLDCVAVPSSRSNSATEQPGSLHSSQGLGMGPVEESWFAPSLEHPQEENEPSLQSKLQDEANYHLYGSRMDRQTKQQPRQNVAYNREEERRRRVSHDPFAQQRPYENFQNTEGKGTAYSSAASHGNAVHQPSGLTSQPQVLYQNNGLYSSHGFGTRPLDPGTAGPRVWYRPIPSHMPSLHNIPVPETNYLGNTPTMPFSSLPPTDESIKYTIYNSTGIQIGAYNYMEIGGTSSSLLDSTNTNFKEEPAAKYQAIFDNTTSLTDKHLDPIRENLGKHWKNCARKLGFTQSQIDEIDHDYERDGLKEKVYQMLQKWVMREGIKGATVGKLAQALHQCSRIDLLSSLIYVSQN
UniProt Q15418, whole entry: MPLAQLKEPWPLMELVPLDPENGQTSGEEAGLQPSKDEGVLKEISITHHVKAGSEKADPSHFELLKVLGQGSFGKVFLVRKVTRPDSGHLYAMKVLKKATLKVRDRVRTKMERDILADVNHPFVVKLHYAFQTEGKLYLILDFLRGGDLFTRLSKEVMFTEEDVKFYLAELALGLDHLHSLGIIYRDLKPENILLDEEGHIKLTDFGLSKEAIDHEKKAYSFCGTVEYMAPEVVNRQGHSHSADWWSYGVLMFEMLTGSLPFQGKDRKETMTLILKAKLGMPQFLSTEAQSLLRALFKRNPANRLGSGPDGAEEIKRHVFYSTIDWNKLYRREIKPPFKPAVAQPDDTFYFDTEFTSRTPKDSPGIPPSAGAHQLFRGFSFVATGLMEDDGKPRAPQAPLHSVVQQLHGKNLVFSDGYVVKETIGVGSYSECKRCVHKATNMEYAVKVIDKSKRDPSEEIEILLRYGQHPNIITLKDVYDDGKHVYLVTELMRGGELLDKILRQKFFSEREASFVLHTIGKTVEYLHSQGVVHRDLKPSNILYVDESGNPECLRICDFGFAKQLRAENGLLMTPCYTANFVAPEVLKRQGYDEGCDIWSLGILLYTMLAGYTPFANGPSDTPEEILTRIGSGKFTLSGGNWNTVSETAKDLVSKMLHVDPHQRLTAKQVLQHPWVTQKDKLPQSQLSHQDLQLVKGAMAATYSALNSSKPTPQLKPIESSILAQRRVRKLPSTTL
UniProt Q9NYA1, whole entry: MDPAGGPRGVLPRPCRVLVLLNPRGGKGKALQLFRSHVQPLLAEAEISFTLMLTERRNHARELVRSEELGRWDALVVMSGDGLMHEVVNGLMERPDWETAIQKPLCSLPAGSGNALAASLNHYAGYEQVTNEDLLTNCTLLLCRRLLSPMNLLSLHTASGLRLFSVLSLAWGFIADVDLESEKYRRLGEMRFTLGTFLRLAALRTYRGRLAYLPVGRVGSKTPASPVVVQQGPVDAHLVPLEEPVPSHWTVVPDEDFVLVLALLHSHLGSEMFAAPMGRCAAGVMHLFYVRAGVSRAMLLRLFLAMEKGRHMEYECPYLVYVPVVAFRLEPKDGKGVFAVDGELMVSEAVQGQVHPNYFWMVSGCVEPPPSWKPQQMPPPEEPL
UniProt Q9Y6E0: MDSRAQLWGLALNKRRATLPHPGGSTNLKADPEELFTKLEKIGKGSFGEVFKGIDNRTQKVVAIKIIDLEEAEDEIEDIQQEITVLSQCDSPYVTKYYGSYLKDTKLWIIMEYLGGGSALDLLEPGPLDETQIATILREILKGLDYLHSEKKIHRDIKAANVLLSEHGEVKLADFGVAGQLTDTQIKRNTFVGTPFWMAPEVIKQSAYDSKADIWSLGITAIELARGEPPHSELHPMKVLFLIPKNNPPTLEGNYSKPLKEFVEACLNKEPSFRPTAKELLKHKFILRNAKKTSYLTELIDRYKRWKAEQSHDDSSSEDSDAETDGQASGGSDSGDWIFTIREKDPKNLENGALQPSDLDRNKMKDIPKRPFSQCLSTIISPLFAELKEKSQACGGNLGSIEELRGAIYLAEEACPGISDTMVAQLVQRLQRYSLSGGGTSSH
UniProt Q15208: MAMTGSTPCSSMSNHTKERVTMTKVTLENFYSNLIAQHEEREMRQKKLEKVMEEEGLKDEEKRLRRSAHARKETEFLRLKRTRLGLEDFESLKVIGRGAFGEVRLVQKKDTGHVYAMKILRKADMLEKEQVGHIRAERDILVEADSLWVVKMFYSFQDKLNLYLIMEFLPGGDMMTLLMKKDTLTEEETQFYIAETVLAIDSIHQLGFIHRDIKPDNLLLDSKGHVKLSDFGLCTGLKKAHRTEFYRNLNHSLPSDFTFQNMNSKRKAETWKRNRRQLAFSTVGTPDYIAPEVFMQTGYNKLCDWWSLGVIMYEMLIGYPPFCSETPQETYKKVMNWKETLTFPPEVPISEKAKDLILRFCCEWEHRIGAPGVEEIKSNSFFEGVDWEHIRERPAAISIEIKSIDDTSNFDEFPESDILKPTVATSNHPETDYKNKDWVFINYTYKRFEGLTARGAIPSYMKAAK
UniProt P29597: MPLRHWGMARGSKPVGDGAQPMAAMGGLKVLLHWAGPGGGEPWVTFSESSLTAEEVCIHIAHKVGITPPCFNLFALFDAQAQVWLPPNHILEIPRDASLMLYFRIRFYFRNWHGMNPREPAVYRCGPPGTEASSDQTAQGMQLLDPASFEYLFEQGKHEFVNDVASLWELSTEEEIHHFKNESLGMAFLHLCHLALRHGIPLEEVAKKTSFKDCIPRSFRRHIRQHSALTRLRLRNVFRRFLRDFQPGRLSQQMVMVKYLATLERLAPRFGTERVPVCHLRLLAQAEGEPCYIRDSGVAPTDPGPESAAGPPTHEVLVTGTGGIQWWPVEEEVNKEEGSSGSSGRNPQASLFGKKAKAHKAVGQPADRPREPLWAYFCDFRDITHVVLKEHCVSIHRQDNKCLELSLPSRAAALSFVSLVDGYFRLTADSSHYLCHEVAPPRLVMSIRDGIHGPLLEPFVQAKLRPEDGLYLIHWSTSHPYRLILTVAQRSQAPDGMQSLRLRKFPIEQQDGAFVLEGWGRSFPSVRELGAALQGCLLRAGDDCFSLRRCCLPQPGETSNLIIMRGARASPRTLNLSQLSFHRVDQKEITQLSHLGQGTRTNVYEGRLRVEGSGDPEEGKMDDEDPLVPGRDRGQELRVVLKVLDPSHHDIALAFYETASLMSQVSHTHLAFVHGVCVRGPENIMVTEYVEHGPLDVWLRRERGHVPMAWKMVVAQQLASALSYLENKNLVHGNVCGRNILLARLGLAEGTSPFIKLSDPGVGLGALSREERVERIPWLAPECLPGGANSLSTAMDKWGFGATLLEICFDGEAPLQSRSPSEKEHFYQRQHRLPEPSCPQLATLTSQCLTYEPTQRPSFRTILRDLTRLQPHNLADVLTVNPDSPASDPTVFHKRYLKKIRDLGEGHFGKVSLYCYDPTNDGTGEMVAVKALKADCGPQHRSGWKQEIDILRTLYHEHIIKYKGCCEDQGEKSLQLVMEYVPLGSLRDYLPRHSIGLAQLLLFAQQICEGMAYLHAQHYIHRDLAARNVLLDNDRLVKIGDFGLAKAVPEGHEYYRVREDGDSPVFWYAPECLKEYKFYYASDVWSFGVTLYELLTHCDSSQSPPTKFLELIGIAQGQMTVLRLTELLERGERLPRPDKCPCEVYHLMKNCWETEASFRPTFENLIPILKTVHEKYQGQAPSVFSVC
UniProt Q6PHR2: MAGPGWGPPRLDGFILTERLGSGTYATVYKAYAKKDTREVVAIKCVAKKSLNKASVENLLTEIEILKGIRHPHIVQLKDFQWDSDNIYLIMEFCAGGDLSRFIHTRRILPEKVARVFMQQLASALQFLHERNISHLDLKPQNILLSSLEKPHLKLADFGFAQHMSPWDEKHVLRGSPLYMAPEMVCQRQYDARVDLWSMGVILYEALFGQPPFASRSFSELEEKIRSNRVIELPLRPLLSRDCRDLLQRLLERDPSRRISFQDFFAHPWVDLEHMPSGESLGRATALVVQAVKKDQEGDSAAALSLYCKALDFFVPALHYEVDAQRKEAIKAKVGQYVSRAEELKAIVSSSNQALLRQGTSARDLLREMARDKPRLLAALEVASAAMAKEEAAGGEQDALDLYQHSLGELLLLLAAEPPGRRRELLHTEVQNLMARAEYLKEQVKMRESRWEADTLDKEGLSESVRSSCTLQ
UniProt P07947, whole entry, looked up: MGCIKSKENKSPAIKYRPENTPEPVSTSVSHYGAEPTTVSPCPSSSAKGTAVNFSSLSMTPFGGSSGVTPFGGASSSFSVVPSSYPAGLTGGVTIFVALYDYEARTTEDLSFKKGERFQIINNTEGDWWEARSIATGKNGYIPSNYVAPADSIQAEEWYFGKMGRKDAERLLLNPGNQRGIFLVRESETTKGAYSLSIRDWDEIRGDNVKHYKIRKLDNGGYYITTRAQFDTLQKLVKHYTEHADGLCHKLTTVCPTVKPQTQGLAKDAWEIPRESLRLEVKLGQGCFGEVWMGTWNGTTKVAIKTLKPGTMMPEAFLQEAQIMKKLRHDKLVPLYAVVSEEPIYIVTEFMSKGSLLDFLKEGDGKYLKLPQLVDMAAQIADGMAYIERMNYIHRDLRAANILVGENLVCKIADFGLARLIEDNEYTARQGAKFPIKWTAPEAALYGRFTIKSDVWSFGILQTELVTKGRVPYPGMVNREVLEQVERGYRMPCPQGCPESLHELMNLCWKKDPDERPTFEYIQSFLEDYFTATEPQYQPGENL
UniProt P43403: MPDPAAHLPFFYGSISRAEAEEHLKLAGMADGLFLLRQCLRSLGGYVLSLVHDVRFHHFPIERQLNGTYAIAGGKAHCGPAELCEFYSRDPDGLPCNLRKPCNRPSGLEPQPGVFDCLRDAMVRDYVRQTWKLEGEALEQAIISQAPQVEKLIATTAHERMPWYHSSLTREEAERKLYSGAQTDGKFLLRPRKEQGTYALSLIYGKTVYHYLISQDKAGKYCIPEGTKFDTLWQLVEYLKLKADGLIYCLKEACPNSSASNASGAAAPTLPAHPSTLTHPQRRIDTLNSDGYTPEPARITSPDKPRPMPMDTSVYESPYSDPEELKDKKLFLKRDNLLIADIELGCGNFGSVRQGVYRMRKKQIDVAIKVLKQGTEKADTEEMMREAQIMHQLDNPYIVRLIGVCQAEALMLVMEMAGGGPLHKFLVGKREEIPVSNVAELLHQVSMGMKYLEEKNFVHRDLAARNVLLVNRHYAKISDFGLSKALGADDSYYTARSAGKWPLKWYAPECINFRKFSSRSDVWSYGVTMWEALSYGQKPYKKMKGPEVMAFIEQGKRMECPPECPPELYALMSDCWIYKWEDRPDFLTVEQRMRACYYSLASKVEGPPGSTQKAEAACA
UniProt P50613: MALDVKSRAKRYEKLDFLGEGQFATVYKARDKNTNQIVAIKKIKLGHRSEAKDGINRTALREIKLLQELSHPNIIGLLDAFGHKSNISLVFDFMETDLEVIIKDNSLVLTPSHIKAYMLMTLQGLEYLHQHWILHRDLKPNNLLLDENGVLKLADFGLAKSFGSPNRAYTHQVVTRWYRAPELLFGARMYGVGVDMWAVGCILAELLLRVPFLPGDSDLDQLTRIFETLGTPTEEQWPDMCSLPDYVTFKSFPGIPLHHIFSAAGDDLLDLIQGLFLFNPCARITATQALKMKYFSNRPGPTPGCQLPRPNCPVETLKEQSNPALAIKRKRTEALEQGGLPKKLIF

How the values were obtained:
Details in all cases: 10 µM; K562; 2-18 h
RET = RET (UniProt P07949); assay: kinase-Nluc reporter destabilization hit call (1 = scored as downregulated) (binary); higher = compound decreases kinase abundance
[1] = target: RET_M918T (clone: RET_mut) (UniProt P07949); assay: as above
RIOK1 = RIOK1 (UniProt Q9BRS2); assay: as above
RIPK1 = RIPK1 (UniProt Q13546); assay: as above
RIPK2 = RIPK2 (UniProt O43353); assay: as above
ROR2 = ROR2 (UniProt Q01974); assay: as above
RPS6KA1 = RPS6KA1 (UniProt Q15418); assay: as above
SPHK1 = SPHK1 (UniProt Q9NYA1); assay: as above
SRC = SRC (UniProt P12931); assay: as above
STK24 = STK24 (UniProt Q9Y6E0); assay: as above
STK38 = STK38 (UniProt Q15208); assay: as above
SYK = SYK (UniProt P43405); assay: as above
TEC = TEC (UniProt P42680); assay: as above
TYK2 = TYK2 (UniProt P29597); assay: as above
ULK3 = ULK3 (UniProt Q6PHR2); assay: as above
YES1 = YES1 (UniProt P07947); assay: as above
ZAK = ZAK (UniProt Q9NYL2); assay: as above
ZAP70 = ZAP70 (UniProt P43403); assay: as above
CDK4 = CDK4 (UniProt P11802); assay: number of time points (of 4; 2 h point missing) at which kinase-Nluc abundance scored as decreased, DMSO-normalised (count); higher = more persistent destabilization
CDK7 = CDK7 (UniProt P50613); assay: as above

CN(C)C(=O)c1cc2cnc(Nc3ccc(N4CCNCC4)cn3)nc2n1C1CCCC1 [Ribociclib]
0: number of time points (CDK4) | number of time points (CDK7)
inactive: kinase-Nluc reporter destabilization hit call (RET) 0 | kinase-Nluc reporter destabilization hit call [1] 0 | kinase-Nluc reporter destabilization hit call (RIOK1) 0 | kinase-Nluc reporter destabilization hit call (RIPK1) 0 | kinase-Nluc reporter destabilization hit call (RIPK2) 0 | kinase-Nluc reporter destabilization hit call (ROR2) 0 | kinase-Nluc reporter destabilization hit call (RPS6KA1) 0 | kinase-Nluc reporter destabilization hit call (SPHK1) 0 | kinase-Nluc reporter destabilization hit call (SRC) 0 | kinase-Nluc reporter destabilization hit call (STK24) 0 | kinase-Nluc reporter destabilization hit call (STK38) 0 | kinase-Nluc reporter destabilization hit call (SYK) 0 | kinase-Nluc reporter destabilization hit call (TEC) 0 | kinase-Nluc reporter destabilization hit call (TYK2) 0 | kinase-Nluc reporter destabilization hit call (ULK3) 0 | kinase-Nluc reporter destabilization hit call (YES1) 0 | kinase-Nluc reporter destabilization hit call (ZAK) 0 | kinase-Nluc reporter destabilization hit call (ZAP70) 0

COc1cc2c(-c3cnn4cc(N5CCC(N6CCN(C)CC6)CC5)cnc34)ccnc2cc1F [ALK2-IN-4 (succinate)]
active: kinase-Nluc reporter destabilization hit call (RIPK2) 1
0: number of time points (CDK4) | number of time points (CDK7)
inactive: kinase-Nluc reporter destabilization hit call (RET) 0 | kinase-Nluc reporter destabilization hit call [1] 0 | kinase-Nluc reporter destabilization hit call (RIOK1) 0 | kinase-Nluc reporter destabilization hit call (RIPK1) 0 | kinase-Nluc reporter destabilization hit call (ROR2) 0 | kinase-Nluc reporter destabilization hit call (RPS6KA1) 0 | kinase-Nluc reporter destabilization hit call (SPHK1) 0 | kinase-Nluc reporter destabilization hit call (SRC) 0 | kinase-Nluc reporter destabilization hit call (STK24) 0 | kinase-Nluc reporter destabilization hit call (STK38) 0 | kinase-Nluc reporter destabilization hit call (SYK) 0 | kinase-Nluc reporter destabilization hit call (TEC) 0 | kinase-Nluc reporter destabilization hit call (TYK2) 0 | kinase-Nluc reporter destabilization hit call (ULK3) 0 | kinase-Nluc reporter destabilization hit call (YES1) 0 | kinase-Nluc reporter destabilization hit call (ZAK) 0 | kinase-Nluc reporter destabilization hit call (ZAP70) 0

CN(C)C(=O)c1cc2cnc(Nc3ccc(N4CCNCC4)cn3)nc2n1C1CCCC1 [Ribociclib succinate]
0: number of time points (CDK4) | number of time points (CDK7)
inactive: kinase-Nluc reporter destabilization hit call (RET) 0 | kinase-Nluc reporter destabilization hit call [1] 0 | kinase-Nluc reporter destabilization hit call (RIOK1) 0 | kinase-Nluc reporter destabilization hit call (RIPK1) 0 | kinase-Nluc reporter destabilization hit call (RIPK2) 0 | kinase-Nluc reporter destabilization hit call (ROR2) 0 | kinase-Nluc reporter destabilization hit call (RPS6KA1) 0 | kinase-Nluc reporter destabilization hit call (SPHK1) 0 | kinase-Nluc reporter destabilization hit call (SRC) 0 | kinase-Nluc reporter destabilization hit call (STK24) 0 | kinase-Nluc reporter destabilization hit call (STK38) 0 | kinase-Nluc reporter destabilization hit call (SYK) 0 | kinase-Nluc reporter destabilization hit call (TEC) 0 | kinase-Nluc reporter destabilization hit call (TYK2) 0 | kinase-Nluc reporter destabilization hit call (ULK3) 0 | kinase-Nluc reporter destabilization hit call (YES1) 0 | kinase-Nluc reporter destabilization hit call (ZAK) 0 | kinase-Nluc reporter destabilization hit call (ZAP70) 0

Nc1cncc(-c2cn3ccnc3c(Nc3ccc(N4CCN(C5COC5)CC4)cc3)n2)n1 [Lanraplenib]
inactive: kinase-Nluc reporter destabilization hit call (RET) 0 | kinase-Nluc reporter destabilization hit call [1] 0 | kinase-Nluc reporter destabilization hit call (RIOK1) 0 | kinase-Nluc reporter destabilization hit call (RIPK1) 0 | kinase-Nluc reporter destabilization hit call (RIPK2) 0 | kinase-Nluc reporter destabilization hit call (ROR2) 0 | kinase-Nluc reporter destabilization hit call (RPS6KA1) 0 | kinase-Nluc reporter destabilization hit call (SPHK1) 0 | kinase-Nluc reporter destabilization hit call (SRC) 0 | kinase-Nluc reporter destabilization hit call (STK24) 0 | kinase-Nluc reporter destabilization hit call (STK38) 0 | kinase-Nluc reporter destabilization hit call (SYK) 0 | kinase-Nluc reporter destabilization hit call (TEC) 0 | kinase-Nluc reporter destabilization hit call (TYK2) 0 | kinase-Nluc reporter destabilization hit call (ULK3) 0 | kinase-Nluc reporter destabilization hit call (YES1) 0 | kinase-Nluc reporter destabilization hit call (ZAK) 0 | kinase-Nluc reporter destabilization hit call (ZAP70) 0
0: number of time points (CDK4) | number of time points (CDK7)

N#CCNC(=O)c1ccc(-c2ccnc(Nc3ccc(N4CCOCC4)cc3)n2)cc1 [Momelotinib sulfate]
0: number of time points (CDK4) | number of time points (CDK7)
inactive: kinase-Nluc reporter destabilization hit call (RET) 0 | kinase-Nluc reporter destabilization hit call [1] 0 | kinase-Nluc reporter destabilization hit call (RIOK1) 0 | kinase-Nluc reporter destabilization hit call (RIPK1) 0 | kinase-Nluc reporter destabilization hit call (RIPK2) 0 | kinase-Nluc reporter destabilization hit call (ROR2) 0 | kinase-Nluc reporter destabilization hit call (RPS6KA1) 0 | kinase-Nluc reporter destabilization hit call (SPHK1) 0 | kinase-Nluc reporter destabilization hit call (SRC) 0 | kinase-Nluc reporter destabilization hit call (STK24) 0 | kinase-Nluc reporter destabilization hit call (STK38) 0 | kinase-Nluc reporter destabilization hit call (SYK) 0 | kinase-Nluc reporter destabilization hit call (TEC) 0 | kinase-Nluc reporter destabilization hit call (TYK2) 0 | kinase-Nluc reporter destabilization hit call (ULK3) 0 | kinase-Nluc reporter destabilization hit call (YES1) 0 | kinase-Nluc reporter destabilization hit call (ZAK) 0 | kinase-Nluc reporter destabilization hit call (ZAP70) 0
